Laboratory results reported in patent US12606552B2, “Bifunctional compound, preparation method therefor, and use thereof” (SUZHOU KINTOR PHARMACEUTICALS, INC., priority 2020, dated 2026).
Structures were worked out from names or drawings and are uncertain.

The chains behind the UniProt entries cited, without tags or fusion partners.
UniProt P10275, whole entry T878A: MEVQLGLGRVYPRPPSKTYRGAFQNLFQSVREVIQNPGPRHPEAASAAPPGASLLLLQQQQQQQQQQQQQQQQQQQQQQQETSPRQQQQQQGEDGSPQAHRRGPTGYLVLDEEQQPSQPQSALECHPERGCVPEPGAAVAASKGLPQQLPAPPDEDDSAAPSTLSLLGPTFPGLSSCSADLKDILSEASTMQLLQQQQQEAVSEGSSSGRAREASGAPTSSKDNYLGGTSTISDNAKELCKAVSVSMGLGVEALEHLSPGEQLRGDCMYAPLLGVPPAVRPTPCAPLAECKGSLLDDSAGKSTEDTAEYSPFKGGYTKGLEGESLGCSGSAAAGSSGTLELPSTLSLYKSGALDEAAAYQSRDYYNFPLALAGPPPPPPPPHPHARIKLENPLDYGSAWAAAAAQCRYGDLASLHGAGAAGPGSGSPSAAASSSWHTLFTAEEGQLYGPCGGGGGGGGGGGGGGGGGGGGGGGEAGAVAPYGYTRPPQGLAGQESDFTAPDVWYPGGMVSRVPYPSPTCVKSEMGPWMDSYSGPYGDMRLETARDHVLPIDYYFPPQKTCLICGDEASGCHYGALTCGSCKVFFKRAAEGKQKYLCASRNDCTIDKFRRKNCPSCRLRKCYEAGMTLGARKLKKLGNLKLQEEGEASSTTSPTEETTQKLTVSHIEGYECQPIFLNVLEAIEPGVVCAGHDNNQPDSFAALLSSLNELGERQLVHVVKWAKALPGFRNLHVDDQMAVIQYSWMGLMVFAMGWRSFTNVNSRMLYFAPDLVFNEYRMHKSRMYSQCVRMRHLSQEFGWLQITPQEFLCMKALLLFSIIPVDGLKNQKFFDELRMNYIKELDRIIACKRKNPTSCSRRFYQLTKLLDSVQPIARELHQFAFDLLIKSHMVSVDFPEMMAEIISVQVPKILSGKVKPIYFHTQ

Columns and labels:
[1] = Pharmacokinetic studies of compounds in mice; details: male mice, intragastric administration 10 mg/kg, plasma
Protocol: Activity Assay Example 3: Pharmacokinetic Studies of Compounds in Mice
In this test, 3 male mice were selected and divided into 1 group, 3 mice/group. All animals were fasted overnight before administration.
The intragastric administration dose was 10 mg/kg, and the administration volume was 10 mL/kg.
2.2 Preparation of Drug Solution
According to the animal body weight combined with the administration dose, the amount of the required drug solution was calculated. […]
Before administration, the animals were weighed and the body weight of the animals involved in the experiment was recorded, and the administration volume of each animal was calculated according to the body weight. […]
After administration, whether animals had abnormal reactions was observed immediately. […] If abnormal reactions were found, they should be recorded in time, and the number of observations should be increased until the animals returned to normal or to the end of the experiment. […]
The collected plasma samples were handed over to the Pharmacokinetic department for sample extraction, and the test substances in the plasma were extracted by protein precipitation method using organic reagents containing internal standards (acetonitrile:plasma=4:1, v/v). The extracted processed samples were submitted for quantitative concentration analysis by LC-MS/MS. […]

AR = AR (Homo sapiens, UniProt P10275, T878A); assay: Effects of compounds on AR expression in LNCaP cells (ELISA, DC50); details: read-out: LNCaP DC50, 24 hours of drug treatment, AR by ELISA
Protocol: Activity Assay Example 1: Effects of Compounds on AR Expression in LNCaP Cells
1. Cell Line and Cell Culture
Human prostate cancer cells LNCaP (Shanghai Chinese Academy of Sciences Cell Bank). LNCaP was cultured in 1640 medium containing 10% fetal bovine serum. The cells grow in clusters, with weak adhesion to the bottom of the culture flask, slow proliferation, with a multiplication time of 72 h. The cells are closely adhered to each other and need to be digested with 0.05% trypsin containing 0.025% EDTA. The cells were passaged every 3 days. The cells were cultured at 37° C. and 5% CO2 in a humidified incubator
2. Cell plating: The supernatant was discarded, and the Lncap cells in the logarithmic growth phase were taken, washed with PBS once, and added with appropriate 0.05% trypsin digestion solution to be fully digested into single cell suspension, and centrifuged, resuspended and counted to make the number of cells about 15,000 per well, then inoculated in a 96-well plate, placed at 37° C., 5% CO2 and cultured overnight for 24 h.
3. Preparation and Addition of Compound Solutions […]
4.6 The reaction wells were added with 100 ul/well of stop solution, mixed well and then the OD450 value was measured with a microplate reader. […]

Cc1ncsc1-c1ccc(CNC(=O)[C@@H]2C[C@@H](O)CN2C(=O)[C@@H](NC(=O)COCCOc2ccc(-c3ccc(N4C(=S)N(c5ccc(C#N)c(C(F)(F)F)c5F)C(=O)C4(C)C)cn3)cc2F)C(C)(C)C)cc1
eAUC0.5-2 h [1]: 191 ± 154 ng·h/mL | DC50 (AR): 46.4 nM
